Data as given in PubChem BioAssay AID1259405 (NCATS, 2018)
This is an unselected part of about 50,000 reagents tested. About 4,000 of them (8%) count as active. 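Mouse siRNA library applied to hamster cells; one well for each siRNA.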 The numbers tell different reagents against one gene apart. No sequences are given here.

Purpose: 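Silenced genes that increase secreted GFP made by CHO cells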 (primary screen)
System: Chinese hamster CHO-K1 ovary cells with stable secreted eGFP expression
Reagents: single siRNA against mouse genes, 0.8 pmol siRNA per well (2 µl of 400 nM stock)
Duration: 3 days
Measurement: 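Per-well intracellular GFP measured by laser scanning cytometry, plus viability from ATP luminescence, each relative to plate median of non-targeting control wells, in %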
Reading the numbers: GFP, % of control: higher = more GFP per well, higher productivity; viability (ATP), % of control: higher = more viable cells (more ATP)
Rule for the call: 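a knock-down is called active if GFP reaches 120% or more of non-targeting control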

gene,reagent no.,"GFP, % of control","viability (ATP), % of control",Outcome
Hoxb5 (homeobox B5),1,69.1,97.1,inactive
Hoxb5 (homeobox B5),2,68.4,64.1,inactive
Hoxb5 (homeobox B5),3,90.3,101,inactive
Stx7 (syntaxin 7),1,108,92.9,inactive
Stx7 (syntaxin 7),2,75.6,75.6,inactive
Cd96 (CD96 antigen),1,54.8,75.7,inactive
Cd96 (CD96 antigen),2,98.1,93.7,inactive
Cd96 (CD96 antigen),3,76,70.5,inactive
2810408A11Rik (RIKEN cDNA 2810408A11 gene),1,41.9,47.6,inactive
2810408A11Rik (RIKEN cDNA 2810408A11 gene),2,99.7,80.9,inactive
2810408A11Rik (RIKEN cDNA 2810408A11 gene),3,80.6,115,inactive
"Jun (Jun proto-oncogene, AP-1 transcription factor subunit)",1,72.1,75,inactive
"Jun (Jun proto-oncogene, AP-1 transcription factor subunit)",2,69,63.6,inactive
"Jun (Jun proto-oncogene, AP-1 transcription factor subunit)",3,85.5,110,inactive
"Selp (selectin, platelet)",1,75.4,79.4,inactive
"Selp (selectin, platelet)",2,55.5,49,inactive
Traip (TRAF-interacting protein),1,72.6,62,inactive
Traip (TRAF-interacting protein),2,111,84.6,inactive
Traip (TRAF-interacting protein),3,68.7,90,inactive
Uox (urate oxidase),1,146,104,active
Uox (urate oxidase),2,85.9,63.1,inactive
Uox (urate oxidase),3,59.1,64.2,inactive
"Crygc (crystallin, gamma C)",1,114,96.7,inactive
"Crygc (crystallin, gamma C)",2,84,92.2,inactive
"Crygc (crystallin, gamma C)",3,123,103,active
Slc25a32,1,68.9,81.8,inactive
Slc25a32,2,48.7,40.4,inactive
Slc25a32,3,80.1,73.1,inactive
Diaph2 (diaphanous related formin 2),1,45.7,51.3,inactive
Diaph2 (diaphanous related formin 2),2,69.4,65.7,inactive
Diaph2 (diaphanous related formin 2),3,63.8,96.4,inactive
"Gucy1a1 (guanylate cyclase 1, soluble, alpha 1)",1,57.7,76.4,inactive
"Gucy1a1 (guanylate cyclase 1, soluble, alpha 1)",2,50.4,51.5,inactive
"Gucy1a1 (guanylate cyclase 1, soluble, alpha 1)",3,58.6,69.6,inactive
Arhgap39 (Rho GTPase activating protein 39),1,51.9,49.2,inactive
Arhgap39 (Rho GTPase activating protein 39),2,88.1,93.3,inactive
Arhgap39 (Rho GTPase activating protein 39),3,65,82,inactive
Sumf2 (sulfatase modifying factor 2),1,217,105,active
Sumf2 (sulfatase modifying factor 2),2,76.5,108,inactive
Sumf2 (sulfatase modifying factor 2),3,147,112,active
Ptger3 (prostaglandin E receptor 3 (subtype EP3)),1,160,107,active
Ptger3 (prostaglandin E receptor 3 (subtype EP3)),2,73.1,110,inactive
Ptger3 (prostaglandin E receptor 3 (subtype EP3)),3,43,60.1,inactive
Or52e7 (olfactory receptor family 52 subfamily E member 7),1,81.7,79.6,inactive
Or52e7 (olfactory receptor family 52 subfamily E member 7),2,125,65.4,active
Or52e7 (olfactory receptor family 52 subfamily E member 7),3,80.2,110,inactive
Olfm2 (olfactomedin 2),1,96.1,50.7,inactive
Olfm2 (olfactomedin 2),2,93.4,87.4,inactive
Olfm2 (olfactomedin 2),3,73.5,88.5,inactive
Kics2 (KICSTOR subunit 2),1,164,71.9,active
Kics2 (KICSTOR subunit 2),2,94.1,61.2,inactive
Kics2 (KICSTOR subunit 2),3,120,109,inactive
"Raet1a (retinoic acid early transcript 1, alpha)",1,71.7,73.6,inactive
"Raet1a (retinoic acid early transcript 1, alpha)",2,127,91.1,active
"Raet1a (retinoic acid early transcript 1, alpha)",3,66,77.4,inactive
Prss41 (serine protease 41),1,43.2,35.7,inactive
Prss41 (serine protease 41),2,74.7,52.6,inactive
Prss41 (serine protease 41),3,64.9,86.8,inactive
Kcmf1 (potassium channel modulatory factor 1),1,54.7,54.3,inactive
Kcmf1 (potassium channel modulatory factor 1),2,83.3,66.3,inactive
Kcmf1 (potassium channel modulatory factor 1),3,105,89.3,inactive
Mxd3 (Max dimerization protein 3),1,67.5,44.2,inactive
Mxd3 (Max dimerization protein 3),2,79.1,80.4,inactive
Mxd3 (Max dimerization protein 3),3,85.5,104,inactive
Thap11 (THAP domain containing 11),1,116,97.2,inactive
Thap11 (THAP domain containing 11),2,79.5,97.9,inactive
Thap11 (THAP domain containing 11),3,96,106,inactive
Mepce (methylphosphate capping enzyme),1,88.6,91.5,inactive
Mepce (methylphosphate capping enzyme),2,74.6,78.4,inactive
Mrpl11 (mitochondrial ribosomal protein L11),1,85.2,77.1,inactive
Mrpl11 (mitochondrial ribosomal protein L11),2,108,87.6,inactive
Mrpl11 (mitochondrial ribosomal protein L11),3,92.7,90.8,inactive
Or51v14 (olfactory receptor family 51 subfamily V member 14),1,76,72.1,inactive
Or51v14 (olfactory receptor family 51 subfamily V member 14),2,62.1,50.6,inactive
Or51v14 (olfactory receptor family 51 subfamily V member 14),3,39.1,95.8,inactive
Vmn1r214 (vomeronasal 1 receptor 214),1,54.9,55.3,inactive
Vmn1r214 (vomeronasal 1 receptor 214),2,116,108,inactive
Vmn1r214 (vomeronasal 1 receptor 214),3,39.2,48.7,inactive
Suv39h2 (suppressor of variegation 3-9 2),1,64.5,46.3,inactive
Suv39h2 (suppressor of variegation 3-9 2),2,94.5,82.5,inactive
Gcc1 (golgi coiled coil 1),1,57.7,85.2,inactive
Gcc1 (golgi coiled coil 1),2,69.4,87.3,inactive
Gcc1 (golgi coiled coil 1),3,76.6,47.1,inactive
Lrrc66 (leucine rich repeat containing 66),1,119,87.8,inactive
Lrrc66 (leucine rich repeat containing 66),2,69.9,78.6,inactive
Lrrc66 (leucine rich repeat containing 66),3,62.7,75.5,inactive
Retreg1 (reticulophagy regulator 1),1,78.9,59.4,inactive
Retreg1 (reticulophagy regulator 1),2,57.9,48,inactive
Retreg1 (reticulophagy regulator 1),3,42.7,41.4,inactive
Baiap2l1 (BAI1-associated protein 2-like 1),1,127,105,active
Baiap2l1 (BAI1-associated protein 2-like 1),2,83.2,99.4,inactive
Baiap2l1 (BAI1-associated protein 2-like 1),3,34,53,inactive
Thumpd3 (THUMP domain containing 3),1,74.9,79.3,inactive
Thumpd3 (THUMP domain containing 3),2,79,87.3,inactive
Thumpd3 (THUMP domain containing 3),3,66.8,83.7,inactive
Or56a5 (olfactory receptor family 56 subfamily A member 5),1,37.1,67.3,inactive
Or56a5 (olfactory receptor family 56 subfamily A member 5),2,78.6,52,inactive
Or56a5 (olfactory receptor family 56 subfamily A member 5),3,47.6,102,inactive
Smurf2 (SMAD specific E3 ubiquitin protein ligase 2),1,78.8,81.7,inactive
Smurf2 (SMAD specific E3 ubiquitin protein ligase 2),2,101,71.2,inactive
Smurf2 (SMAD specific E3 ubiquitin protein ligase 2),3,74.7,107,inactive
Or8d1b (olfactory receptor family 8 subfamily D member 1B),1,43.4,54.3,inactive
Or8d1b (olfactory receptor family 8 subfamily D member 1B),2,101,82.5,inactive
Or8d1b (olfactory receptor family 8 subfamily D member 1B),3,81.6,121,inactive
"Pim2 (Pim2, proto-oncogene, serine/threonine kinase)",1,41.9,45.6,inactive
"Pde6b (phosphodiesterase 6B, cGMP, rod receptor, beta polypeptide)",1,82.8,90,inactive
"Pde6b (phosphodiesterase 6B, cGMP, rod receptor, beta polypeptide)",2,41.2,46.3,inactive
"Pde6b (phosphodiesterase 6B, cGMP, rod receptor, beta polypeptide)",3,45,85.5,inactive
